Source: PubChem BioAssay AID200 (DTP/NCI, 2004)
The list is a part of this screen's results and no random one: it gathers tests that were run many times, whatever their T/C, doses with no T/C, and many T/C values between a quarter and a half above the control. Further doses and runs are listed elsewhere. T/C: endpoint of the treated group in % of that of the vehicle group. Some doses have a count of surviving animals in place of a T/C: the source holds a T/C of zero for them, seemingly a mark for toxic or unscored doses. Some survivor counts are full or nearly so, which does not show that the dose was tolerated: survival well below the control is almost never listed, so the zero probably covers shortened survival too. Survivors were counted at the toxicity check, usually on the fifth day, unless a day is given; later deaths do not show. Schedules are NCI's codes, read here as Q, the interval in days (D) or hours (H), X, the number of doses. Some entries were tested several times; their values stand side by side, smallest first. For survival time, this PubChem deposit counts one and a half times the control or more as active, and values a quarter to a half above the control carry no call in these data; other NCI protocols may use other cut-offs. Some T/C values are followed by the survivors on the day toxicity was checked, most often the fifth; where none is given, no animal had died by that day. Where a SMILES comes first, the peptide text is derived from it.

System: B6C3F1 mice, B16 melanoma ip, median survival T/C
Assay: NCI In Vivo Anticancer Drug Screen. Data for tumor model B16 Melanoma (intraperitoneal) in B6C3F1 mice
Conditions: T/C endpoint: median survival time, higher T/C = longer survival
Procedure, shortened: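 Values are T/C ratios: the measurement in treated animals divided by that in vehicle-treated controls, using survival or tumor size in mice carrying transplantable tumors.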

[1] = dose: 50.0 mg/kg/injection, schedule: Q01DX009 (ip), vehicle: saline with Tween-80
[2] = dose: 100.0 mg/kg/injection, schedule: Q01DX009 (ip), vehicle: saline with Tween-80
[3] = dose: 200.0 mg/kg/injection, schedule: Q01DX009 (ip), vehicle: saline with Tween-80
[4] = dose: 400.0 mg/kg/injection, schedule: Q01DX009 (ip), vehicle: saline with Tween-80
[5] = dose: 4.0 mg/kg/injection, schedule: Q01DX009 (ip), vehicle: saline
[6] = dose: 50.0 mg/kg/injection, schedule: Q01DX001 (ip), vehicle: water
[7] = dose: 100.0 mg/kg/injection, schedule: Q01DX001 (ip), vehicle: water
[8] = dose: 200.0 mg/kg/injection, schedule: Q01DX001 (ip), vehicle: water
[9] = dose: 400.0 mg/kg/injection, schedule: Q01DX009 (ip), vehicle: Klucel (hydroxypropylcellulose) (HPC)
[10] = dose: 25.0 mg/kg/injection, schedule: Q01DX009 (ip), vehicle: distilled water + Tween-80 + alcohol
[11] = dose: 400.0 mg/kg/injection, schedule: Q01DX009 (ip), vehicle: saline
[12] = dose: 800.0 mg/kg/injection, schedule: Q01DX009 (ip), vehicle: saline with Tween-80

COc1cccc2c1C(=O)c1c(O)c3c(c(O)c1C2=O)C[C@@](O)(C(C)=O)C[C@@H]3OC1CC(N(Cc2ccccc2)Cc2ccccc2)C(O)C(C)O1 (some centres undefined)
T/C (dose: 6.0 mg/kg/injection, schedule: Q01DX009 (ip), vehicle: saline with Tween-80): 127 % of control | T/C (dose: 6.0 mg/kg/injection, schedule: Q01DX009 (ip), vehicle: water): 139 % of control | survivor count (dose: 24.0 mg/kg/injection, schedule: Q01DX009 (ip), vehicle: saline with Tween-80): 10 of 10 | survivor count (dose: 24.0 mg/kg/injection, schedule: Q01DX009 (ip), vehicle: water): 10 of 10 | survivor count (dose: 48.0 mg/kg/injection, schedule: Q01DX009 (ip), vehicle: saline with Tween-80): 9 of 10 | survivor count (dose: 48.0 mg/kg/injection, schedule: Q01DX009 (ip), vehicle: water): 9 of 10

C=C(C)C(=O)OC1C/C(CO)=C\C(O)C/C(C)=C/C2OC(=O)C(=C)C21 (centres undefined)
T/C (dose: 20.0 mg/kg/injection, schedule: Q01DX009 (ip), vehicle: saline + alcohol): 126 % of control

CC(=O)NC(CC(C)C)C(=O)O (centres undefined)
survivor count [1]: 10 of 10 | survivor count [2]: 10 of 10 | survivor count [3]: 10 of 10 | survivor count [4]: 10 of 10

COc1cccc2c1C(=O)c1c(O)c3c(c(O)c1C2=O)C[C@@](O)(C(=O)COC(=O)c1cccnc1)C[C@@H]3OC1CC(N)C(O)C(C)O1 (some centres undefined)
survivor count [5]: 10 of 10 | survivor count (dose: 8.0 mg/kg/injection, schedule: Q01DX009 (ip), vehicle: saline): 10 of 10

COC(=O)C[C@](O)(CCC(C)(C)O)C(=O)O[C@@H]1C(OC)=C[C@]23CCCN2CCc2cc4c(cc2[C@H]13)OCO4
T/C (dose: 0.25 mg/kg/injection, schedule: Q01DX009 (ip), vehicle: saline): 136 % of control | T/C (dose: 2.0 mg/kg/injection, schedule: Q01DX009 (ip), vehicle: saline): 148 % of control | survivor count [5]: 6 of 10 and 7 of 10

COc1cccc2c1C(=O)c1c(O)c3c(c(O)c1C2=O)C[C@@](O)(c1csc(N)n1)C[C@@H]3OC1CC(N)C(O)C(C)O1 (some centres undefined)
T/C (dose: 25.0 mg/kg/injection, schedule: Q01DX001 (ip), vehicle: water): 144 % of control | T/C [6]: 129 and 146 % of control | T/C [7]: 145 % of control | survivor count [7]: 0 of 10 | survivor count [8]: 0 of 10 and 2 of 10 | survivor count (dose: 400.0 mg/kg/injection, schedule: Q01DX001 (ip), vehicle: water): 0 of 10

N#CCS(=O)(=O)c1cccc[n+]1[O-]
survivor count [4]: 6 of 8

CC(=O)Nc1ccc(/C=N/Nc2ccc([N+](=O)[O-])cn2)cc1
survivor count [1]: 10 of 10

CCC1=C[C@H]2CN(CCc3c([nH]c4ccccc34)[C@@](C(=O)OC)(c3cc4c(cc3OC)N(C)[C@H]3[C@@](O)(C(=O)NC)[C@H](OC(C)=O)[C@]5(CC)C=CCN6CC[C@]43[C@@H]65)C2)C1
survivor count (dose: 1.0 mg/kg/injection, schedule: Q01DX009 (ip), vehicle: saline): 10 of 10

O=Cc1ccccc1
survivor count (dose: 50.0 mg/kg/injection, schedule: Q01DX009 (oral), vehicle: Klucel (hydroxypropylcellulose) (HPC)): 10 of 10 | survivor count (dose: 100.0 mg/kg/injection, schedule: Q01DX009 (ip), vehicle: Klucel (hydroxypropylcellulose) (HPC)): 10 of 10 | survivor count (dose: 100.0 mg/kg/injection, schedule: Q01DX009 (oral), vehicle: Klucel (hydroxypropylcellulose) (HPC)): 10 of 10 | survivor count (dose: 200.0 mg/kg/injection, schedule: Q01DX009 (oral), vehicle: Klucel (hydroxypropylcellulose) (HPC)): 7 of 10 | survivor count [4]: 10 of 10 | survivor count (dose: 400.0 mg/kg/injection, schedule: Q01DX009 (oral), vehicle: Klucel (hydroxypropylcellulose) (HPC)): 9 of 10 | survivor count (dose: 800.0 mg/kg/injection, schedule: Q01DX009 (ip), vehicle: Klucel (hydroxypropylcellulose) (HPC)): 0 of 10 | survivor count (dose: 800.0 mg/kg/injection, schedule: Q01DX009 (oral), vehicle: Klucel (hydroxypropylcellulose) (HPC)): 7 of 10 and 8 of 10 | survivor count (dose: 1600.0 mg/kg/injection, schedule: Q01DX009 (oral), vehicle: Klucel (hydroxypropylcellulose) (HPC)): 0 of 10 and 1 of 10 | survivor count (dose: 3200.0 mg/kg/injection, schedule: Q01DX009 (oral), vehicle: Klucel (hydroxypropylcellulose) (HPC)): 0 of 10

CCCC(NC(=O)CNC(=O)OCc1ccccc1)C(=O)O (centres undefined) (HELM PEPTIDE1{[O=C(OCc1ccccc1)[*:2]].G.[CCCC(N[*:1])C(=O)O]}$$$$V2.0)
survivor count [9]: 0 of 10

CC(C)CC(NC(=O)OCc1ccccc1)C(=O)O (centres undefined)
survivor count [3]: 10 of 10 | survivor count [4]: 10 of 10

O=C(Nc1ccccc1C(=O)O)c1cc([N+](=O)[O-])cc([N+](=O)[O-])c1
survivor count [3]: 6 of 10 | survivor count [4]: 7 of 10

ClCCCN1CCN(CCCCl)CC1
survivor count (dose: 200.0 mg/kg/injection, schedule: Q01DX009 (ip), vehicle: distilled water + alcohol): 0 of 10 and 3 of 10

Cc1cc(NCCCCCCNc2cc(C)nc3cc(N(C)C)ccc23)c2ccc(N(C)C)cc2n1
T/C (dose: 3.0 mg/kg/injection, schedule: Q01DX009 (ip), vehicle: distilled water + Tween-80 + alcohol): 127 % of control | T/C (dose: 6.0 mg/kg/injection, schedule: Q01DX009 (ip), vehicle: distilled water + Tween-80 + alcohol): 129 % of control | T/C [10]: 144 % of control | survivor count [10]: 9 of 10 | survivor count (dose: 50.0 mg/kg/injection, schedule: Q01DX009 (ip), vehicle: distilled water + Tween-80 + alcohol): 6 of 10 | survivor count (dose: 100.0 mg/kg/injection, schedule: Q01DX009 (ip), vehicle: distilled water + Tween-80 + alcohol): 0 of 10

CCCCCCCCCCCC(=O)NC1CC(O[C@H]2C[C@](O)(C(=O)CO)Cc3c(O)c4c(c(O)c32)C(=O)c2c(OC)cccc2C4=O)OC(C)C1O (some centres undefined)
survivor count (dose: 48.0 mg/kg/injection, schedule: Q01DX009 (ip), vehicle: saline): 10 of 10

COc1ccc(/C=C/C(=O)c2cc(C(=O)O)c(OC)cc2OC)cc1OC
survivor count [4]: 5 of 10

COc1cc(O)c2c(O)c3c(c4c2c1[C@]1(C4)C(C)=CCCC1(C)C)[C@H](O)[C@@]1(O)CC(=O)C(C(N)=O)=C(O)[C@@]1(O)C3=O
T/C (dose: 12.5 mg/kg/injection, schedule: Q01DX009 (ip), vehicle: saline with Tween-80): 126 % of control | survivor count (dose: 25.0 mg/kg/injection, schedule: Q01DX009 (ip), vehicle: saline with Tween-80): 10 of 10 | survivor count [1]: 1 of 10

CC(SC(C)C(=O)N/N=C/c1ccc(C#N)cc1)C(=O)N/N=C\c1ccc(C#N)cc1 (centres undefined)
survivor count (dose: 100.0 mg/kg/injection, schedule: Q01DX009 (ip), vehicle: saline): 10 of 10 | survivor count [11]: 10 of 10

Cc1ccc(N)c(N)c1
survivor count [4]: 4 of 10 | survivor count [12]: 0 of 10

COc1cccc2c1C(=O)c1c(O)c3c(c(O)c1C2=O)C[C@@](O)(C(C)=O)C[C@@H]3OC1CC(N(CCO)Cc2ccccc2)C(O)C(C)O1 (some centres undefined)
T/C [6]: 141 % of control | T/C [7]: 143 % of control | survivor count [8]: 6 of 10

Cc1ccc2c(c1)n([O-])c1cc(Cl)ccc1[n+]2=O
T/C [2]: 125 % of control [9 of 10 alive]

CC12C(=O)C=CCC1=CCC1C2CCC2(O)C(=O)OC3(C)C4CC5(C)C(COC16OC23C5C6=O)C(=O)O4 (centres undefined)
survivor count [9]: 2 of 10

CN1C2CCC1C(Br)C(=O)C2 (centres undefined)
survivor count [11]: 3 of 10

C=CCNC(=O)c1ccccc1SC(C)=O
survivor count [1]: 10 of 10 | T/C (dose: 200.0 mg/kg/injection, schedule: Q01DX009 (ip), vehicle: saline + Tween-80 + alcohol): 132 % of control | T/C (dose: 400.0 mg/kg/injection, schedule: Q01DX009 (ip), vehicle: saline + Tween-80 + alcohol): 145 % of control [8 of 9 alive] | survivor count (dose: 800.0 mg/kg/injection, schedule: Q01DX009 (ip), vehicle: saline + Tween-80 + alcohol): 0 of 10 and 1 of 10 | survivor count [12]: 0 of 10

CC(C)(C)OC(=O)NC(CCCCNC(=O)C(F)(F)F)C(=O)ON1C(=O)CCC1=O (centres undefined)
survivor count [2]: 10 of 10 | survivor count [3]: 10 of 10
